Residue numbers refer to the chain shown, from its start. Results are given in words; binding and its absence hold for the method and conditions named. Some results given as binding are weak or reduced against the parent protein; the word gives no strength.
B1: Ab4H5 antibody (antibody, human IgG1, kappa, V domains shown)
VH: EVQLVESGGGVVQPGGSLRLSCAASGFTFSRFGMHWVRQAPGKGLEWVAFISNEGSNKYYADSVKGRFTISRDNSANTLYLQMNSLRAEDTAVYYCARGRAYGSGSLFDPWGQGTLVTVSS
VL: DIQLTQSPSSLSASVGDRVTITCRASRTISSYVNWYRQRPGKAPESLIYAASNLHSGVPSRFSGSGSGTDFTLTISSLQPEDFATYYCQQAGFYTPWTFGQGTKLEIKR
notes: Whole human IgG1, kappa; also called Anti-L1CAM ("Ab4H5"); Ab4H5 mutant
B2: Ab2C2 antibody (antibody, human IgG1, kappa, V domains shown)
VH: B1 VH
VL: B1 VL with T95S
notes: Whole human IgG1, kappa; also called Anti-L1CAM ("Ab2C2"); Ab2C2 mutant
B3: Ab4H6 antibody (antibody, human IgG1, kappa, V domains shown)
VH: B1 VH
VL: B1 VL with A91S, G92L, F93H, Y94F, T95Y
notes: Whole human IgG1, kappa; also called Anti-L1CAM ("Ab4H6"); Ab4H6 mutant
B4: Ab5D12 antibody (antibody, human IgG1, kappa, V domains shown)
VH: B1 VH
VL: B1 VL with A91S, G92L, F93V, Y94W, T95Y
notes: Whole human IgG1, kappa; also called Anti-L1CAM ("Ab5D12"); Ab5D12 mutant
B5: Ab612 antibody (antibody, human IgG1, kappa, V domains shown)
VH: B1 VH
VL: B1 VL with A91S, G92I, F93G, Y94R, T95G, W97V
notes: Whole human IgG1, kappa, purified on protein A; also called Anti-L1CAM ("Ab612")

Chains of the proteins cited; added tags and fusions are not shown. Lines headed by an entry give the natural chain unless they say otherwise; changes in a name come on top.
UniProt P32004: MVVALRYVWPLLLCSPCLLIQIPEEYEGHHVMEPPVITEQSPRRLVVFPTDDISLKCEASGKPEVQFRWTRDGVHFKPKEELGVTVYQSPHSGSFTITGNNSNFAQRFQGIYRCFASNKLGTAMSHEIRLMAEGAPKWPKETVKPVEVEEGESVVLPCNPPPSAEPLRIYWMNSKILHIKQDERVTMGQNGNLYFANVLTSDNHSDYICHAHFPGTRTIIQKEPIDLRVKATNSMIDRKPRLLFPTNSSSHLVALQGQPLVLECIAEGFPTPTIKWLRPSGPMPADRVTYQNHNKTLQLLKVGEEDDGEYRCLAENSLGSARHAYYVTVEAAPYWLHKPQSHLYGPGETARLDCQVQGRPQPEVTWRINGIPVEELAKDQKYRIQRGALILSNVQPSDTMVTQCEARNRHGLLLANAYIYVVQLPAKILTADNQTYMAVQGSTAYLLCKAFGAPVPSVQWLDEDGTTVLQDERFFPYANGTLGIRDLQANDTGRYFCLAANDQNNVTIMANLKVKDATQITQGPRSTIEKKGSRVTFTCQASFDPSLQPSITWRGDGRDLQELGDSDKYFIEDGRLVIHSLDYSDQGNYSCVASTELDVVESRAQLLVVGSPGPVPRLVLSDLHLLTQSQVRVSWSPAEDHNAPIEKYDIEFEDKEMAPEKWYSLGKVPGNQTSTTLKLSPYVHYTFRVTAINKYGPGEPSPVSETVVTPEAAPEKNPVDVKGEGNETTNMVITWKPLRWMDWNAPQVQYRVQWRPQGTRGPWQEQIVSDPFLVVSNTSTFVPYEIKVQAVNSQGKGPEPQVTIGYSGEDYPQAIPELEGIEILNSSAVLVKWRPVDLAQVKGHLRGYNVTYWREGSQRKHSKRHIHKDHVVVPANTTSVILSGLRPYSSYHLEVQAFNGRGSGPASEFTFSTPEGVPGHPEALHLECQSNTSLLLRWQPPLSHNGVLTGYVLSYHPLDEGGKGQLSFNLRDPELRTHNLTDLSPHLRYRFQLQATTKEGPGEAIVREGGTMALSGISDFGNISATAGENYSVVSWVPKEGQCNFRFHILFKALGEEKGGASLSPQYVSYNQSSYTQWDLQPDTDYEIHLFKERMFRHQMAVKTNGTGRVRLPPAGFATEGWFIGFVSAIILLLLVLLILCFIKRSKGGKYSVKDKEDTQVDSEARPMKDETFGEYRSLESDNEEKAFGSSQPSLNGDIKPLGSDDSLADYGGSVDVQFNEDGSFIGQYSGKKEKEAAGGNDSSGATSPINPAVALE

The binders below were run against Human L1CAM on NCI-H522 and SKOV3 cells (human) (UniProt P32004) (assay: flow cytometry, antibody at 10 ug/ml, FITC anti-human IgG Fc).

Binder | binding
B1 | binds
B2 | binds
B3 | binds
B4 | binds
B5 | binds

These binders were tested against Human L1CAM on NCI-H522 and SKOV3 cells (human) (UniProt P32004) (assay: flow cytometry on NCI-H522 cells, antibody 10 ug/ml, FITC anti-human IgG Fc secondary).

Binder | binding
B1 | binds
B2 | binds
B3 | binds
B4 | binds
B5 | binds

These binders were tested against Human L1CAM on NCI-H522 and SKOV3 cells (human) (UniProt P32004) (assay: flow cytometry on SKOV3 cells, antibody 10 ug/ml, FITC anti-human IgG Fc secondary).

Binder | binding
B1 | binds
B2 | binds
B3 | binds
B4 | binds
B5 | binds
